# Data from PubChem BioAssay (NCATS).
# Sequences of proteins named here, by UniProt entry; tags and fusion partners are left off.
# UniProt P78324, whole entry, looked up: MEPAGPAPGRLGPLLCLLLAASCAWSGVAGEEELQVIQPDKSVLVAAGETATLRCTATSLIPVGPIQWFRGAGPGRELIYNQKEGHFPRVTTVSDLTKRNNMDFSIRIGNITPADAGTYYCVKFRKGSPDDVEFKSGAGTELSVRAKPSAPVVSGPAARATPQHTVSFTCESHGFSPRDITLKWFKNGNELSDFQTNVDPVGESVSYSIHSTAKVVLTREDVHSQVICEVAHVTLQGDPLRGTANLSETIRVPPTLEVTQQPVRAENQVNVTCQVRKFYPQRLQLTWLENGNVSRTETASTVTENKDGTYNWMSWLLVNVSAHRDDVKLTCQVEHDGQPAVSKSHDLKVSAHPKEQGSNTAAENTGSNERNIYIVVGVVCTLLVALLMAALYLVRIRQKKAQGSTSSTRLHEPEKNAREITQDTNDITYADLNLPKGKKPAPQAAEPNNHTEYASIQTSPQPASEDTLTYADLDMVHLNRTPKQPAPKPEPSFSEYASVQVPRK
# UniProt Q08722, whole entry, looked up: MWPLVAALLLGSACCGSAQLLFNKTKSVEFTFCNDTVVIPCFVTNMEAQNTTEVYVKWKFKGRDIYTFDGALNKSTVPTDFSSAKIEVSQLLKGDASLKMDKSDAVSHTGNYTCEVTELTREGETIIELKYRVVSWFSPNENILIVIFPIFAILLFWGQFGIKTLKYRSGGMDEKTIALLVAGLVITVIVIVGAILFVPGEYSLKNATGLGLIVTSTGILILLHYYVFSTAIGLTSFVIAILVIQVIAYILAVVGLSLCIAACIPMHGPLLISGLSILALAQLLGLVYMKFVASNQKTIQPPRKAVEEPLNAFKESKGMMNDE
# Where “and” joins values, the source holds several entries; their conditions need not be identical. Identical values can stand only once. This list was built around the results that the source calls inconclusive (neither active nor inactive); the mix of calls is not that of the screen. Potencies of inconclusive entries are doubtful fits and often do not repeat. For part of these data: A note “side channel” means that the fit belongs to a control or component signal, not to the main read-out. Calls of active or inactive are those of the source. Unless noted, calls follow the shape of the dose curve; as a rule, active = well fitted curve in the direction sought with a large enough effect; inconclusive = small, poorly fitted or top-dose-only effect, or another doubt; inactive = no such curve, though single readings can be large; an effect the other way counts as inactive or inconclusive.
# Legend:
# [1] = Identifying Small Molecule Inhibitors of Pancreatic Cancer Stem Cells (Panc1, Adherent) (AID 1259362); details: Potency: viability unless noted; viability, % of control: at 46.1 µM (top of the series) unless noted; also: potency is read from the fitted curve at half-maximal effect;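 as to viability, % of control: compound exposure lasted 48 h before the viability read; plate controls were DMSO-treated cells for no effect and cell-free media wells for full effect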
# Procedure, shortened: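 Cytotoxicity read by CellTiter-Glo luminescence after 48 h compound exposure at 37C; percent activity scaled between DMSO-treated cells and cell-free wells. Spheroid formats used cells pre-formed 14 days in stem cell media on hydrogel.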
# [2] = P-glycoprotein substrates identified in KB-8-5-11 adenocarcinoma cell line, qHTS therapeutic library screen (AID 1346987); also: nearly all actives have a fitted effect of over 65% in size; also: potency is read from the fitted curve at half-maximal effect
# Procedure, shortened: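 Compounds are pinned in dose-response onto KB-8-5-11 cells (500 cells/well, colchicine-free medium) and left 72 h at 37 degree C. CellTiter-Glo luminescence then yields AC50 values.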
# [3] = NS1 protein of Zika virus - qHTS assay to identify small molecule inhibitors in human HEK 293 cells (AID 1347053); also: nearly all actives have a fitted effect of over 55% in size; also: potency is read from the fitted curve at half-maximal effect
# Procedure, shortened: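 In this cell-based screen, HEK 293 cultures received compound for one hour before Zika MR766 at MOI = 0.5. NS1 was quantified 24 hours later by TR-FRET, normalized to virus-free wells and infected wells.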
# [4] = target: Tyrosine-protein phosphatase non-receptor type substrate 1 (Homo sapiens) + Leukocyte surface antigen CD47 (Homo sapiens) (UniProt P78324+Q08722); test: CD47-SIRPalpha protein protein interaction - HTRF assay qHTS validation (AID 1347058; active = well fitted curve in the direction sought with a large enough effect in the signal ratio, not every such curve was filed as active; inconclusive = small, poorly fitted or top-dose-only effect, or effect the other way, or a change in a side signal; inactive = no such curve, though single readings can be large or run the other way; the % refers to the signal ratio)
# Procedure, shortened: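 Soluble extracellular domains (6His-CD47, Avi-tag-biotinylated SIRPalpha) in PBS pH 7.4 with 0.05% IGEPAL CA-630. Compounds were preincubated 30 min at RT with CD47 and anti-His-Eu, then SIRPalpha and SAV-XL665 were added. TR-FRET 665/615 ratio.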
# [5] = P-glycoprotein substrates identified in KB-3-1 adenocarcinoma cell line, qHTS therapeutic library screen (AID 1346986);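 also: potency is read from the fitted curve at half-maximal effect; potency is for cytotoxicity meaning loss of cell viability; nearly all actives have a fitted effect of over 60% in size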
# Procedure, shortened: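 72 h cell-killing screen, 500 cells/well, CellTiter-Glo luminescence. Paired lines KB-3-1/KB-8-5-11; P-gp dependence checked by tariquidar co-treatment and HEK-293 MDR-19 versus empty-vector cells.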
# [6] = qHTS of pediatric cancer cell lines to identify multiple opportunities for drug repurposing: Primary screen for TC32 cells (AID 1347089); also: nearly all actives have a fitted effect of over 60% in size; also: potency is read from the fitted curve at half-maximal effect
# Procedure, shortened: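 A viability screen of TC32 cells was run over 48 h, with primary MIPE doses spanning 0.78 nM–46 µM and NPC doses 0.59 nM–46 µM. ATP luminescence (CellTiter-Glo) served as the read-out.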
smiles,measurement,setting,value
CN1CCN(c2cc(C(=O)Nc3ccc4c(c3)-c3c(c(C(N)=O)nn3-c3ccc(F)cc3)CC4)c(Cl)cn2)CC1,Potency,[1],"inconclusive: 23.5 µM [cytotoxic, partial curve, poor fit]"
same,Potency,[2],"active: 23.5 µM and inconclusive: 29.1 µM [inhibitor, single point]"
same,Potency,[3],active: 26.4 µM
COc1cc2nccc(Oc3ccc(NC(=O)Nc4cc(C)on4)c(Cl)c3)c2cc1OC,Potency,[1],"inconclusive: 18.7 µM [cytotoxic, single point]"
same,Potency,[2],active: 11.8 µM and active: 13 µM
same,Potency,[3],"inconclusive: 37.2 µM [inhibitor, single point]"
CCCCCCCc1ccc(CCc2cccc(O)c2C(=O)O)cc1,Potency,[1],inactive
same,Potency,[2],"inconclusive: 37.2 µM [inhibitor, single point]"
same,Potency,[3],"inconclusive: 33.2 µM [inhibitor, single point]"
Cc1ccc(-c2cc(C(F)(F)F)nn2-c2ccc(S(N)(=O)=O)cc2)cc1,"viability, % of control",[1],inconclusive: 77.8% [at 92.2 µM]
same,Potency,[2],"inconclusive: 29.1 µM [inhibitor, single point] and inconclusive: 37.2 µM [inhibitor, single point]"
same,Potency,[3],inactive
same,Potency,[4],"inconclusive: 14.7 µM [side channel, falling, single point]"
O=C1[C@H](Cc2ccc(O)cc2)N2C(=O)CCN(C(=O)NCc3ccccc3)[C@H]2CN1Cc1cccc2ccccc12,Potency,[1],"inconclusive: 4.18 µM [cytotoxic, partial curve, poor fit]"
same,Potency,[2],"inconclusive: 26.4 µM [inhibitor, single point]"
same,Potency,[3],active: 9.35 µM
CCOC(=O)C(C)Oc1cccc2c(=O)n(CC(=O)Nc3ccc4c(c3)OCCO4)ccc12 (configuration not stated),"viability, % of control",[1],inconclusive: 121%
same,Potency,[2],inactive
Cc1csc(-c2nnc(Nc3ccc(Oc4ncccc4-c4ccnc(N)n4)cc3)c3ccccc23)c1,Potency,[1],"inconclusive: 33.2 µM [cytotoxic, single point]"
same,Potency,[5],"inconclusive: 5.8 µM [inhibitor, partial curve, poor fit]"
same,Potency,[2],"inconclusive: 26.4 µM [inhibitor, partial curve, poor fit] and inconclusive: 4.1 nM [inhibitor, full curve, poor fit]"
same,Potency,[6],"inconclusive: 0.0117 µM [cytotoxic, full curve]"
CCN(CC)CCCCNc1nc2cc(Cl)c(Cl)cc2nc1-c1ccc(-c2cccs2)s1,Potency,[1],"inconclusive: 37.2 µM [cytotoxic, single point]"
same,Potency,[2],active: 9.35 µM
CCCS(=O)(=O)Nc1ccc(F)c(C(=O)c2c[nH]c3ncc(Cl)cc23)c1F,"viability, % of control",[1],inconclusive: 78.3%
same,Potency,[2],"inconclusive: 14.8 µM [inhibitor, partial curve] and inconclusive: 16.4 µM [inhibitor, partial curve]"
CC(=O)c1c(C)c2cnc(Nc3ccc(N4CCNCC4)cn3)nc2n(C2CCCC2)c1=O,Potency,[1],"inconclusive: 37.2 µM [cytotoxic, single point]"
same,Potency,[2],"inconclusive: 33.2 µM [inhibitor, single point]"
same,Potency,[3],"inconclusive: 33.2 µM [inhibitor, single point]"
Cc1ccc(-c2ncn(-c3ccc(Nc4nccc(-c5cccc(N6CCOCC6)c5)n4)cc3)n2)cn1,Potency,[1],active: 0.0743 µM
same,Potency,[2],active: 1.05 µM
CN(C(=O)c1ccc(F)cc1C(F)(F)F)C1CCN(c2nnc(-c3ccnn3C)c3ccccc23)CC1,Potency,[1],"inconclusive: 2.64 µM [cytotoxic, full curve, poor fit]"
same,Potency,[2],inactive
CCCS(=O)(=O)Nc1ccc(F)c(C(=O)c2c[nH]c3ncc(-c4ccc(Cl)cc4)cc23)c1F,Potency,[1],inconclusive: 0.001 µM [cytotoxic]
same,Potency,[2],"inconclusive: 13 µM [inhibitor, single point]"
CC1(O)CC(c2nc(-c3ccc4ccc(-c5ccccc5)nc4c3)c3c(N)nccn23)C1 (configuration not stated),Potency,[1],"inconclusive: 20.9 µM [cytotoxic, partial curve, poor fit]"
same,Potency,[3],"inconclusive: 37.2 µM [inhibitor, single point]"
C=CC(=O)Nc1cccc(Oc2nc(Nc3ccc(N4CCN(C)CC4)cc3OC)ncc2Cl)c1,Potency,[1],inactive
same,Potency,[6],"inconclusive: 4.66 µM [cytotoxic, full curve, poor fit]"
CCc1cc(-c2n[nH]c(C)c2-c2ccc3c(c2)OCCO3)c(O)cc1O,Potency,[1],"inconclusive: 20.9 µM [cytotoxic, partial curve, poor fit]"
same,Potency,[6],"inconclusive: 8.29 µM [cytotoxic, full curve]"
Cc1cc2c(F)c(Oc3ncnn4cc(OC[C@@H](C)O)c(C)c34)ccc2[nH]1,Potency,[1],inactive
same,Potency,[2],"inconclusive: 16.6 µM [inhibitor, partial curve]"
same,Potency,[3],active: 0.935 µM
same,Potency,[6],"inconclusive: 16.5 µM [cytotoxic, partial curve]"
CC(C)(C)OC(=O)Nc1ccc(-c2cc(C(=O)NCCCCCCC(=O)NO)no2)cc1,Potency,[1],"inconclusive: 11.8 µM [cytotoxic, partial curve]"
same,Potency,[2],active: 8.33 µM
same,Potency,[3],active: 26.4 µM
same,Potency,[6],active: 9.3 µM
COc1ccc(-c2ccc3c(N4CCOC[C@H]4C)nc(N4CCOC[C@H]4C)nc3n2)cc1CO,"viability, % of control",[1],inconclusive: 81.8%
same,Potency,[2],active: 0.0132 µM
same,Potency,[3],"inconclusive: 16.6 µM [inhibitor, partial curve, poor fit]"
same,Potency,[6],active: 0.165 µM
CCCCn1c(=O)n(Cc2ccccc2F)c(=O)c2[nH]c(Cc3ccc(NC(C)=O)cc3)nc21,"viability, % of control",[1],inconclusive: 89.4%
same,Potency,[3],inactive
Cn1cc(-c2[nH]c3cc(NC(=O)[C@H](N)C4CCCCC4)cc4c3c2C=NNC4=O)cn1,"viability, % of control",[1],inconclusive: 88%
same,Potency,[3],active: 0.332 µM
CC(C)(O)CCc1ccc(OCc2cc(-c3cccc(OC(F)F)c3)c3ncccc3c2)cc1,Potency,[1],"inconclusive: 83.3 µM [cytotoxic, partial curve, poor fit]"
same,Potency,[3],"inconclusive: 1.32 µM [inhibitor, single point]"
Cc1ccc(C(=O)Nc2ccc(CN3CCN(C)CC3)c(C(F)(F)F)c2)cc1C#Cc1cnc2cccnn12,Potency,[1],active: 23.5 µM
same,Potency,[3],active: 11.8 µM
COc1cc2c(cc1OC)CN(CCc1ccc(NC(=O)c3cccc4c(=O)c5cccc(OC)c5[nH]c34)cc1)CC2,Potency,[1],inactive
same,Potency,[2],"inactive and inconclusive: 32.6 µM [inhibitor, partial curve, poor fit]"
same,Potency,[6],inactive
COc1cc2ncnc(Nc3ccc(F)c(Cl)c3)c2cc1NC(=O)C=CCN1CCCCC1,Potency,[1],active: 23.5 µM
same,Potency,[3],"inconclusive: 37.2 µM [inhibitor, single point]"
CC(=O)NCCC(=O)N[C@@H](CCC(N)=O)C(=O)N[C@@H](CO)C(=O)N[C@@H](CCC(N)=O)C(=O)N[C@@H](CCC(N)=O)C(=O)N[C@H](C(=O)N[C@@H](Cc1ccccc1)C(=O)N[C@]1(C)CCCCCCC=CCCC[C@@](C)(C(=O)N[C@@H](CCC(N)=O)C(=O)N[C@@H](CC(N)=O)C(N)=O)NC(=O)[C@H](CC(C)C)NC(=O)[C@H](CC(C)C)NC(=O)[C@@H](CCCNC(=N)N)NC(=O)[C@H](Cc2c[nH]c3ccccc23)NC(=O)[C@H](CC(C)C)NC(=O)[C@H](CC(N)=O)NC1=O)[C@H](C)O,Potency,[1],inactive
same,Potency,[3],"inconclusive: 37.2 µM [inhibitor, single point]"
Cc1cn(-c2cc(NC(=O)c3ccc(C)c(Nc4nccc(-c5cccnc5)n4)c3)cc(C(F)(F)F)c2)cn1,Potency,[1],"inconclusive: 23.5 µM [cytotoxic, single point]"
same,Potency,[3],"inconclusive: 11.8 µM [inhibitor, single point]"
CCn1c(-c2nonc2N)nc2c(C#CC(C)(C)O)ncc(OC[C@H]3CCCNC3)c21,Potency,[1],"inconclusive: 29.6 µM [cytotoxic, single point]"
same,Potency,[3],inactive
CCCc1nn(C)c2c(=O)[nH]c(-c3cc(S(=O)(=O)N4CCN(C)CC4)ccc3OCC)nc12,"viability, % of control",[1],inconclusive: 79.8%
same,Potency,[2],"inconclusive: 2.06 µM [inhibitor, full curve, poor fit] and active: 13.2 µM and inconclusive: 20.6 µM [inhibitor, partial curve]"
same,Potency,[4],"inconclusive: 26.1 µM [side channel, falling, single point]"
same,Potency,[6],"inconclusive: 5.23 µM [cytotoxic, partial curve, poor fit]"
O=C1C(CCC(O)c2ccc(F)cc2)C(c2ccc(O)cc2)N1c1ccc(F)cc1 (configuration not stated),Potency,[1],"inconclusive: 4.18 µM [cytotoxic, partial curve, poor fit]"
same,Potency,[3],"inconclusive: 37.2 µM [inhibitor, single point]"
CC(C)[C@H](C(=O)Nc1ccc(C(=O)NO)cc1)c1ccccc1,Potency,[1],active: 0.418 µM
same,Potency,[3],"inconclusive: 33.2 µM [inhibitor, partial curve, poor fit]"
CC(C)CC(=O)Nc1n[nH]c2c1CN(C(=O)C1CCN(C)CC1)C2(C)C,Potency,[1],"inconclusive: 7.43 µM [cytotoxic, full curve]"
same,Potency,[3],active: 26.4 µM
same,Potency,[6],active: 5.87 µM
COc1cc(OC2CCN(C)CC2)ccc1Nc1ncc2c(n1)n(C1CCCC1)c(=O)n2C,Potency,[1],active: 2.96 µM
same,Potency,[3],"inconclusive: 33.2 µM [inhibitor, single point]"
C=CCn1c(=O)c2cnc(Nc3ccc(N4CCN(C)CC4)cc3)nc2n1-c1cccc(C(C)(C)O)n1,Potency,[1],active: 0.59 µM
same,Potency,[3],active: 0.418 µM
